From patent US20230192767A1 (MEDIKINE, published 2023)
No constants are given. Whether binding was seen depends on the method and setting. Some entries that bind do so weakly or less than the wild type. Sequences can lack the tags named with a protein.

T1: human IL-2Rβ (CD122 protein, Fc Tag) (27-239) (human) (UniProt P14784)
T1 sequence (looked up): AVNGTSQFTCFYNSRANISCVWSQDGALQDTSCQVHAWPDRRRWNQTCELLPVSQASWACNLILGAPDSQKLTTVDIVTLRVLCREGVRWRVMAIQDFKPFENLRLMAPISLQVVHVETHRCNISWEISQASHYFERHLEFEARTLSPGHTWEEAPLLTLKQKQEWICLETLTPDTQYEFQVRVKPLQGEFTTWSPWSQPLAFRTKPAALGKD

T2: human IL-2Rγc (CD132 protein, Fc Tag) (23-254) (human) (UniProt P31785)
T2 sequence (looked up): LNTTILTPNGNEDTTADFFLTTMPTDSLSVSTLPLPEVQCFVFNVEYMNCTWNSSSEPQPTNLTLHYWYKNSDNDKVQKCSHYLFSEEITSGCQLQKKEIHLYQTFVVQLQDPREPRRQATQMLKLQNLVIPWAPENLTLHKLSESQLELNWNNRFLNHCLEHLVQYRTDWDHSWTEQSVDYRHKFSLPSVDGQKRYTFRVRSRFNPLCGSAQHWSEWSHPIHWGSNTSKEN


How the values were obtained:
[1] = biological target: T1, human IL-2Rβ (CD122 protein, Fc Tag) (27-239) (human); assay: phage competition ELISA on IL-2Rβ ECD; competitor phage clone 58; + = peptide competes with phage binding
[2] = biological target: T1, human IL-2Rβ (CD122 protein, Fc Tag) (27-239) (human); assay: phage competition ELISA on IL-2Rβ ECD; competitor phage clone 83; + = peptide competes with phage binding
[3] = biological target: T1, human IL-2Rβ (CD122 protein, Fc Tag) (27-239) (human); assay: phage competition ELISA on IL-2Rβ ECD; competitor phage clone 170; + = peptide competes with phage binding
[4] = biological target: T1, human IL-2Rβ (CD122 protein, Fc Tag) (27-239) (human); assay: phage competition ELISA on IL-2Rβ ECD; competitor phage clone 1034 or 1084; + = peptide competes with phage binding
[5] = biological target: T2, human IL-2Rγc (CD132 protein, Fc Tag) (23-254) (human); assay: phage competition ELISA on IL-2Rγc; competitor phage clone 198; + = peptide competes with phage binding
[6] = biological target: T2, human IL-2Rγc (CD132 protein, Fc Tag) (23-254) (human); assay: phage competition ELISA on IL-2Rγc; competitor phage clone 224; + = peptide competes with phage binding
[7] = biological target: T2, human IL-2Rγc (CD132 protein, Fc Tag) (23-254) (human); assay: phage competition ELISA on IL-2Rγc; competitor phage clone 236; + = peptide competes with phage binding
[8] = biological target: T2, human IL-2Rγc (CD132 protein, Fc Tag) (23-254) (human); assay: phage competition ELISA on IL-2Rγc; competitor phage clone 266; + = peptide competes with phage binding
[9] = biological target: T2, human IL-2Rγc (CD132 protein, Fc Tag) (23-254) (human); assay: phage competition ELISA on IL-2Rγc; competitor phage clone 248 or 1051; + = peptide competes with phage binding

binding [1]	binding [2]	binding [3]	binding [4]	binding [5]	binding [6]	binding [7]	binding [8]	binding [9]	Binder
binds	binds	binds	binds	–	–	–	–	–	CYEVGDYCQSPL [IL-2Rβ ligand SEQ ID NO: 1042]
–	–	–	–	binds	binds	binds	binds	binds	RTCTEWENVVLCWV [IL-2Rγc ligand SEQ ID NO: 202]
–	–	–	–	binds	binds	binds	binds	binds	DLSDLSTFWLSQ [IL-2Rγc ligand SEQ ID NO: 1051]
